# According to the supplement of paper PMC2577665:
# Tested on: ERE-luciferase reporter with exogenous ERalpha in HeLa cells
# Experiment: relative ERE luciferase activity (Firefly/Renilla) upon cDNA overexpression, relative to empty vector (fold of empty vector); higher = stronger ERalpha transactivation (less repression)
# Details: 17beta-estradiol: 10 nM; 12 h
row,Substance,relative ERE luciferase activity
1,MVLGKVKSLTISFDCLNDSNVPVYSSGDTVSGRVNLEVTGEIRVKSLKIHARGHAKVRWTESRNAGSNTAYTQNYTEEVEYFNHKDILIGHERDDDNSEEGFHTIHSGRHEYAFSFELPQTPLATSFEGRHGSVRYWVKAELHRPWLLPVKLKKEFTVFEHIDINTPSLLSPQAGTKEKTLCCWFCTSGPISLSAKIERKGYTPGESIQIFAEIENCSSRMVVPKAAIYQTQAFYAKGKMKEVKQLVANLRGESLSSGKTETWNGKLLKIPPVSPSILDCSIIRVEYSLMVYVDIPGAMDLFLNLPLVIGTIPLHPFGSRTSSVSSQCSMNMNWLSLSLPERPEAPPSYAEVVTEEQRRNNLAPVSACDDFERALQGPLFAYIQEFRFLPPPLYSEIDPNPDQSADDRPSCPSR [ARRDC3],0.873
2,MVPREAPESAQCLCPSLTIPNAKDVLRKRHKRRSRQHQRFMARKALLQEQGLLSMPPEPGSSPLPTPFGAATATEAASSGKQCLRAGSGSAPCSRRPAPGKASGPLPSKCVAIDCEMVGTGPRGRVSELARCSIVSYHGNVLYDKYIRPEMPIADYRTRWSGITRQHMRKAVPFQVAQKEILKLLKGKVVVGHALHNDFQALKYVHPRSQTRDTTYVPNFLSEPGLHTRARVSLKDLALQLLHKKIQVGQHGHSSVEDATTAMELYRLVEVQWEQQEARSLWTCPEDREPDSSTDMEQYMEDQYWPDDLAHGSRGGAREAQDRRN [ISG20L1],1.22
3,MVSSPCTQASSRTCSRILGLSLGTAALFAAGANVALLLPNWDVTYLLRGLLGRHAMLGTGLWGGGLMVLTAAILISLMGWRYGCFSKSGLCRSVLTALLSGGLALLGALICFVTSGVALKDGPFCMFDVSSFNQTQAWKYGYPFKDLHSRNYLYDRSLWNSVCLEPSAAVVWHVSLFSALLCISLLQLLLVVVHVINSLLGLFCSLCEK [TM4SF19],1.02 ± 0.021
4,MVVREASAAQASLSQVLPQLRYLHIFLEQVHTHFQEQSVGERGAAIQLAEGLARQLCTDCQLNKLFYREEFVLATLLDPCFKGKIEAILPWGPTDIDHWKQVLVYKVKEIRVSEYSLNSPSPLQSPRGLCVDPTRVAKSSGVEGRSQGEPLQSSSHSGAFLLAQREKGLLESMGLLASERSGGSLSTKSHWASIIVKKYLWENETVGAQDDPLAYWEKKREAWPPSICLTPHRSLL [C7orf29],1.08
5,MWSGLLPPGLNESDAESNSEDEATLENSGLNLQEDKEDESIRKTEIIDFSTDEPKTETESNVNAYEECPSGIPIDMWNKFQELHKKHSEQKSTTSRFRGKRRKRSRKDKLKNEKELHSEPSSNETQWKELTQYFGVNDRFDPPVKRKKVEKSGLEKRIDQAVEEWNIEKAEELSNQLATRELGVKIAKAVACHNFVKAKKEVENSQAARKKKKLAWGFEAKKRWETKSNMGYM [C10orf84],1.25
6,MWSRLVWLGLRAPLGGRQGFTSKADPQGSGRITAAVIEHLERLALVDFGSREAVARLEKAIAFADRLRAVDTDGVEPMESVLEDRCLYLRSDNVVEGNCADELLQNSHRVVEEYFVAPPGNISLPKLDEQEPFPHS [15E1.2],1.14
7,MYLQVETRTSSRLHLKRAPGIRSWSLLVGILSIGLAAAYYSGDSLGWKLFYVTGCLFVAVQNLEDWEEAIFDKSTGKVVLKTFSLYKKLLTLFRAGHDQVVVLLHDVRDVSVEEEKVRYFGKGYMVVLRLATGFSHPLTQSAVMGHRSDVEAIAKLITSFLELHCLESPTELSQSSDSEAGDPASQS [C17orf62],1.08
8,MYSAPSACTCLCLHFLLLCFQVQVLVAEENVDFRIHVENQTRARDDVSRKQLRLYQLYSRTSGKHIQVLGRRISARGEDGDKYAQLLVETDTFGSQVRIKGKETEFYLCMNRKGKLVGKPDGTSKECVFIEKVLENNYTALMSAKYSGWYVGFTKKGRPRKGPKTRENQQDVHFMKRYPKGQPELQKPFKYTTVTKRSRRIRPTHPA [FGF18],1.16
9,RCOR3,1.25
10,SRXN1,0.97
11,TINP1,0.606
12,TMEM55A,1.32
13,TNRC6C,1.25
14,VCX,3.15
15,ZNF34,1.08
16,ZNF383,1.09
17,ZNF557,1.23
18,ZNF641,2.39
19,ZNF720,1.06
20,ZNF785,1.18
21,ZSCAN16,0.754

# ± gives the standard deviation of the averaged measurements. This is a noisy data set.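 Every well combined ERalpha-negative HeLa cells, transfected ERalpha, a two-estrogen-response-element reporter, and overexpression of a single poorly characterized human cDNA. Any gene lowering the signal to at most the BRCA1 positive control level, about 0.6 of empty vector, was called a repressor hit.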
